# The campaign covered roughly 320,000 compounds. About 2,100 (0.66%) were called active. This list was built around the results that the source calls inconclusive (neither active nor inactive); the mix of calls is not that of the screen. Calls come from the whole dose curve; as a rule, active = well fitted inhibition curve with a large enough effect in the signal ratio, with a control signal flat (not every such curve was filed as active); inconclusive = small, poorly fitted or top-dose-only effect, or effect the other way, or a change in a side signal; inactive = flat fitted curve, though single readings scatter; the % refers to the signal ratio. Where the call is inconclusive, the potency comes from a doubtful curve fit.
# Assay: qHTS Assay for Lipid Storage Modulators in Drosophila S3 Cells
# Conditions: BODIPY lipid droplet fluorescence, 18-24 h, cells fed with added oleic acid; lipid storage change, negative = inhibition: at 46.1 µM (top of the series) unless noted
# In short: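 Drosophila S3 cells loaded with oleic acid (400 uM, as added) and compounds at several concentrations; lipid droplets imaged by 488-nm laser-scanning cytometry, 500–530 nm intensity and object ratio to cell channel. Percent activity normalized to 20 uM Triacsin C.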
# % is set by controls: 0 for no effect and ±100 for the full control effect; potency is the fitted concentration of half-maximal effect.
Structure (SMILES),"lipid storage change, negative = inhibition",Potency,outcome
CC(C)(C)OC(=O)CNC(=O)c1[nH]cnc1C(=O)NC1CCN(C(=O)OC(C)(C)C)CC1,inconclusive: -65.8%,,
Cc1nn(-c2ccccc2)c(Cl)c1CN(C(=O)CCl)c1cccc2ccccc12,,"inconclusive: 18.4 µM [falling, single point]",
Cc1ccc(N(CC(=O)NCC2CCCO2)C(=O)CCC(=O)Nc2nccs2)cc1C (stereo not drawn),,"inconclusive: 2.59 µM [falling, full curve, poor fit]",
COc1cc(S(=O)(=O)NCCCn2ccnc2)ccc1F,,"inconclusive: 5.8 µM [activator, full curve]",
C(=N\N1CCN(Cc2ccccc2)CC1)/c1cccnc1,inactive: 10.3%,,
Cc1cc(Cl)nc(Cl)c1C(=O)N1CCOCC1,inconclusive: -7.05%,,
Cc1ccc(-n2nc3cc(Cl)c(NC(=O)c4ccco4)cc3n2)cc1,,"inconclusive: 6.51 µM [activator, partial curve, poor fit]",
O=C(NCCc1ccccc1F)C1CC(O)CN1C(=O)Nc1ccccc1 (stereo not drawn),,"inconclusive: 29.1 µM [activator, single point]",
COc1cccc(/C=C/C(=O)NCc2ccc(S(N)(=O)=O)cc2)c1,inconclusive: 9.1%,,
COC(=O)C1=C(C)Nc2nnnn2C1c1ccc(Cl)cc1Cl (stereo not drawn),,"inconclusive: 6.51 µM [rising, single point]",
CCOC(=O)c1cccc(N2C(=O)C3C(C2=O)C2C=CC3C23CC3)c1 (stereo not drawn),,"inconclusive: 29.1 µM [falling, single point]",
COc1cc(CNCc2ccccc2)cc(Cl)c1OC,inconclusive: -19.2%,,
CCOC(=O)CNC(=S)N(CCCN1CCN(C)CC1)Cc1cccs1,,"inconclusive: 29.1 µM [rising, single point]",
CC(=O)c1ccc(N2CCN(c3ccc(S(=O)(=O)NCCCN(C)C)cc3[N+](=O)[O-])CC2)cc1,,"inconclusive: 29.1 µM [falling, single point]",
CCCn1ncc(CN2CCC(Oc3ccc(C(=O)N4CCCC4)cc3)CC2)c1C,inconclusive: 7.74%,,
Cc1ccc(CNS(=O)(=O)c2ccc(F)c(F)c2)n1C,inconclusive: 37.4%,,
O=C(CN1C(=O)c2ccccc2S1(=O)=O)NCc1c(F)cccc1F,inconclusive,,
CCOC(=O)C1CCN(C(=O)COC(=O)c2cc([N+](=O)[O-])ccc2N2CCOCC2)CC1,inconclusive: 46.1% [activator] [at 0.0737 µM],,
CC(C)(C)NC(=O)CSc1nnc(NC(=O)CCn2cnc3ccccc3c2=O)s1,inconclusive: -30.8%,,
COc1ccccc1N1CCN(S(=O)(=O)c2c(C)[nH]c(=O)[nH]c2=O)CC1,inconclusive: -5.79%,,
O=C(CCC1CCCCC1)NCc1ccccn1,inconclusive: -24.1%,,
CCN1CCN(C(=O)c2cc(-c3cccnc3)nc3ccc(Br)cc23)CC1,inconclusive: -15.2%,,
O=C1CC(N2CCOCC2)C(=O)N1CCN1C(=O)CC(N2CCOCC2)C1=O (stereo not drawn),inconclusive: -37.8%,,
Cc1ccc(Nc2nc3c([nH]2)c(=O)[nH]c(=O)n3C)cc1,,"inconclusive: 1.16 µM [activator, partial curve]",
Cc1oc2c(C)c3oc(=O)c4c(c3cc2c1C)CCCC4,,"inconclusive: 13 µM [activator, partial curve]",
COC(=O)CNC(=O)C12CC3(C)CC(C)(CC(C)(C3)C1)C2,inactive: -1.63%,,

Structure (SMILES),"lipid storage change, negative = inhibition",Potency,outcome
O=C(CSCc1ccc(F)cc1)N1CCN(c2ccccc2)CC1,inconclusive: 25.4%,,
O=C(CNc1cccc(S(=O)(=O)N2CCCCC2)c1)Nc1ccccc1F,inconclusive: -31.7%,,
Cc1csc(SCC(=O)c2cc(C)n(Cc3cccs3)c2C)n1,inconclusive: -15.6%,,
Cc1cc(NC(=O)C(C)SCC(=O)Nc2ccccc2N2CCCCC2)no1 (stereo not drawn),inconclusive,,
CCC(C)NC(=O)c1cnn2c1NC(c1ccc3c(c1)OCO3)CC2C(F)(F)F (stereo not drawn),inconclusive: -5.6%,,
Cc1ccc(C(=O)OCc2nc3ccccc3s2)o1,inconclusive,,
COC(=O)C1CCN(C(=O)COC(=O)CC(NC(N)=O)c2ccc(Cl)cc2)CC1 (stereo not drawn),,"inconclusive: 0.461 µM [activator, single point]",
COc1ccccc1CNC(=O)c1sccc1-c1ccccc1,,,inactive [at 46.1 µM]
CN1C(=O)c2cccc3c(S(=O)(=O)Nc4ccc(O)c(C(=O)O)c4)ccc1c23,inconclusive: 39.4%,,
CCc1cccc2c3c([nH]c12)C(CC)(CC(=O)O)OCC3 (stereo not drawn),inconclusive: 2.55%,,
CSc1nsc(SCC(=O)Nc2nncs2)n1,inactive: 1.82%,,
O=S(=O)(c1ccc(N2CCN(CCO)CC2)nc1)N1CCOCC1,,"inconclusive: 3.66 µM [activator, single point]",
COc1ccccc1Nc1nc(C)cs1,,"inconclusive: 0.731 µM [falling, full curve, poor fit]",
Cc1ccc(S(=O)(=O)NCc2cccnc2)cc1,inconclusive: 22.6%,,
CCOC(=O)c1c(C)[nH]c(C(=O)N2CCc3cc(OC)c(OC)cc3C2)c1C,,"inconclusive: 0.231 µM [activator, full curve, poor fit]",
O=C(CCC(=O)Nc1nnc(C2CCCCC2)s1)Nc1ccccc1,,"inconclusive: 29.1 µM [activator, single point]",
O=C(CNC(=S)N(Cc1ccc(F)cc1)C1CCCCC1)NC1CC1,,"inconclusive: 2.59 µM [rising, partial curve]",
CCSCCc1nnc(NC(=O)Nc2cccc(C(F)(F)F)c2)s1,,active: 20.6 µM,
Cc1cc(NC(=O)COC(=O)c2cc3c(s2)CCC(C)C3)no1 (stereo not drawn),inconclusive: -28.1%,,
CSc1ccccc1C(=O)NC1CCCc2ccccc21 (stereo not drawn),inconclusive: -37.8%,,
COc1cc(/C=N/NC(=O)c2cc3ccccc3[nH]2)ccc1O,inconclusive: 3.09%,,
O=C(O)c1cc(S(=O)(=O)Nc2ccc3cn[nH]c3c2)ccc1Br,inconclusive: 6.6%,,
Cc1cccc(-c2csc(NC(=O)c3cnccn3)c2C(=O)OC(C)C)c1,,"inconclusive: 1.3 µM [activator, partial curve]",
O=C(CSc1nccn1Cc1ccccc1)NC1CCCC1,inconclusive: -38.6%,,
CCOC(=O)N1CCN(S(=O)(=O)c2cc(OCC(N)=O)c(C)cc2Cl)CC1,inconclusive: 57.3%,,
CCn1c(SCC(=O)N2CCOCC2)nc2sc3c(c2c1=O)CCCC3,inconclusive: 14.6%,,

Structure (SMILES),"lipid storage change, negative = inhibition",Potency,outcome
CCOC(=O)C1C(=O)N(O)CC1c1cccc(Oc2ccccc2)c1 (stereo not drawn),,"inconclusive: 0.0052 µM [cytotoxic, full curve, poor fit]",
COc1ccccc1OCCNC(=O)c1ccccc1OCc1c(C)noc1C,inconclusive: -0.76%,,
COc1ccc(OCC(O)CON2C(=O)c3ccccc3C2=O)cc1 (stereo not drawn),inconclusive: 17%,,
CC(NC(=O)c1ccc(F)cc1)C(c1cccs1)N1CCN(C)CC1 (stereo not drawn),inconclusive: -5.38%,,
COc1cc(/C=N/NC(=O)c2sc(N)c(C#N)c2C)cc(Br)c1O,,"inconclusive: 5.8 µM [falling, partial curve]",
CCN(CC)S(=O)(=O)c1ccc(O)c(NC(=O)CN2CCc3ccccc3C2)c1,inconclusive: 7.91%,,
O=C(NNS(=O)(=O)c1ccccc1)c1cccc(F)c1,inconclusive: 47.5%,,
Cc1ccc(/C=N/Nc2cc(C)nc(NCc3ccccc3)n2)cc1,,"inconclusive: 29.1 µM [cytotoxic, single point]",
O=C(NCc1ccco1)C(c1cccs1)N(C(=O)Cc1cccs1)c1ccccc1 (stereo not drawn),inconclusive: -16.7%,,
Cc1cc(C(=O)NCc2ccc(F)cc2)c2ccccc2n1,inconclusive: 9.3%,,
CC(C)(C)n1nnnc1C(c1ccc(Cl)cc1)N(Cc1cccnc1)Cc1ccco1 (stereo not drawn),inconclusive: -27.7%,,
CCCCC(=O)Nc1cccc(NC(=O)c2cccnc2Cl)c1,inconclusive: 24.4%,,
COCCN(C(=O)COC(=O)Cc1cccc2ccccc12)c1c(N)n(Cc2ccccc2)c(=O)[nH]c1=O,inconclusive: 10.4%,,
CN(O)/C=C/C(=O)c1ccc(Br)cc1,inconclusive: -51.1%,,
COc1ccc(Oc2cnn(-c3ccccc3)c(=O)c2Br)cc1,inconclusive: -27.9%,,
CNc1nc(-c2ccccc2)cc(C)c1S(C)(=O)=O,,"inconclusive: 7.31 µM [falling, partial curve, poor fit]",
Cc1cccc(-c2nc3ccccc3c(=O)n2NC(=O)/C=C/c2ccc([N+](=O)[O-])cc2)c1,inconclusive: 12.7%,,
O=[N+]([O-])c1nn(-c2ccc3c(c2)OCCO3)n(O)c1=NC1CCCCC1,inconclusive: -14.4%,,
CCOc1ccc2nc(NS(=O)(=O)Cc3ccccc3)sc2c1,inconclusive: 6.58%,,
CCc1nnc(NC(=O)c2ccc(S(=O)(=O)NC3CCCCC3)cc2)s1,inconclusive: 35.5%,,
CCNC(=S)N1CCN(c2nc(-c3ccc(F)cc3)cs2)CC1,,"inconclusive: 6.51 µM [activator, single point]",
COc1cc(C2Nc3ccccc3C(=O)N2c2ccccc2OC)ccc1O (stereo not drawn),,"inconclusive: 1.3 µM [activator, partial curve]",
COc1ccc(N2CCN(C(=O)CN(Cc3ccc(Cl)cc3)S(C)(=O)=O)CC2)cc1,inconclusive: -1.86%,,
CCOC(=O)c1[nH]c(C)c(CCC(=O)O)c1C,inconclusive: 11%,,
CCCC1(CCC)C(=O)NC(=NCCc2ccc(OC)c(OC)c2)NC1=O,inconclusive: -27.5%,,
Nc1cc(N)nc(SCC(=O)N2CCN(S(=O)(=O)c3ccccc3)CC2)n1,inconclusive: -2.52%,,

# A different layout for some results above.
Structure (SMILES)	lipid storage change, negative = inhibition	Potency	outcome
COc1cc(S(=O)(=O)NCCCn2ccnc2)ccc1F		inconclusive: 5.8 µM [activator, full curve]	
C(=N\N1CCN(Cc2ccccc2)CC1)/c1cccnc1	inactive: 10.3%		
Cc1cc(Cl)nc(Cl)c1C(=O)N1CCOCC1	inconclusive: -7.05%		
Cc1ccc(-n2nc3cc(Cl)c(NC(=O)c4ccco4)cc3n2)cc1		inconclusive: 6.51 µM [activator, partial curve, poor fit]	

# — PubChem BioAssay AID2685 (National Center for Advancing Translational Sciences (NCATS), 2010)
